The source of these data is patent publication US7488583B2, “Fragment complementation assays for G-protein-coupled receptors and their signaling pathways” (Odyssey Thera, Inc., priority 2003, dated 2009).

The chains behind the UniProt entries cited, without tags or fusion partners. Residues count along the entry.
UniProt Q9ULV1, residues 37-537: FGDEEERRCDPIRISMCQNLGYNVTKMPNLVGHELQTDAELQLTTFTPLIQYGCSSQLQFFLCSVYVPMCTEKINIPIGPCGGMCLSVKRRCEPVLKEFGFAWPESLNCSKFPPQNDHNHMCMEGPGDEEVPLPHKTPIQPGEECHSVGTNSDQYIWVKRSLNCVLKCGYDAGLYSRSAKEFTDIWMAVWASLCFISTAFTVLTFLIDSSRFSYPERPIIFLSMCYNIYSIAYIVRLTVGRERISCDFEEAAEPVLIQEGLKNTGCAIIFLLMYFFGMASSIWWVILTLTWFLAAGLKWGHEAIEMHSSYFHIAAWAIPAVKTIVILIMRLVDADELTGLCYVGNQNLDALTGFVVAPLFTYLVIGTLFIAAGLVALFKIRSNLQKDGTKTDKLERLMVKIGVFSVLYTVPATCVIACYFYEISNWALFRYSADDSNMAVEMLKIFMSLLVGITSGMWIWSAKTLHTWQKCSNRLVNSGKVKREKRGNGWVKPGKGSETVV
UniProt P25098: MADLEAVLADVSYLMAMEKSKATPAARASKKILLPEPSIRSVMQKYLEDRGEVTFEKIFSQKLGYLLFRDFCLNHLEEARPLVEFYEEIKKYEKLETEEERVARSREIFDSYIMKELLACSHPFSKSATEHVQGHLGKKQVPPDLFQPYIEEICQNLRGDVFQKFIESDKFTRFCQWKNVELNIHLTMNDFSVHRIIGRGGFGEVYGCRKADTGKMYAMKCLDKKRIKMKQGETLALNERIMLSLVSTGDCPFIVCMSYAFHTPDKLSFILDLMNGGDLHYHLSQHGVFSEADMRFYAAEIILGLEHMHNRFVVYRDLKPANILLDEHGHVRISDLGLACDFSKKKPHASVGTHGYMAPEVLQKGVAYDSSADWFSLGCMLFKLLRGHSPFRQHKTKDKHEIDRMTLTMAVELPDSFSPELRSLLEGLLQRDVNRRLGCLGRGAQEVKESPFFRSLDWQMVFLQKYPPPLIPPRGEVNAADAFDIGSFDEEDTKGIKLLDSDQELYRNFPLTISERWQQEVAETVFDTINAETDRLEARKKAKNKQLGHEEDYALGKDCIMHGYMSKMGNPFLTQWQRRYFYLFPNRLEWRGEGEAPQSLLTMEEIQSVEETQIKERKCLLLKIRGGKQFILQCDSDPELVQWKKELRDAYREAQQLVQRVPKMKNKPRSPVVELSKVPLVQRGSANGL
UniProt P62873: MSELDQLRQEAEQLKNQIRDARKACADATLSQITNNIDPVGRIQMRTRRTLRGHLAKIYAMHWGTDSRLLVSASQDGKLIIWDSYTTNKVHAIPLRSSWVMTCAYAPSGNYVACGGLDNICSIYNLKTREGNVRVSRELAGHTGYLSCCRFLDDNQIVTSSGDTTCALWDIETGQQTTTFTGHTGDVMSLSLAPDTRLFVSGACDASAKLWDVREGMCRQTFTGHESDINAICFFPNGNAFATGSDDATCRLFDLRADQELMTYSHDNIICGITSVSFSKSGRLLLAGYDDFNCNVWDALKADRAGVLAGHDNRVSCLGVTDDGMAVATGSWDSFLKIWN

Results are given in words; binding and its absence hold for the method and conditions named. Some results given as binding are weak or reduced against the parent protein; the word gives no strength. For some assays here: Sequences can lack the tags named with a protein.

For experiment [1], the target named is Frizzled homolog 4 (YFP PCA fragment fusion) (UniProt Q9ULV1). As to the kind of experiment: YFP PCA, transient transfection in HEK cells, fluorescence micrographs (FIG. 13 legend).
For experiment [2] the target is unchanged. Nature of the experiment: YFP PCA, transient transfection in HEK cells, fluorescence microscopy.
Experiment [3] has as its target Chemokine Receptor 5 (YFP PCA fragment fusion) (UniProt P51681). Nature of the experiment: YFP PCA, transient transfection in HEK cells, fluorescence micrographs (FIG. 13 legend).
The target is the same in experiment [4]. As to the kind of experiment: YFP PCA, transient transfection in HEK cells, fluorescence microscopy.
In experiment [5] the target is T1, vasoactive intestinal peptide receptor 2 (YFP PCA fragment fusion) (UniProt P41587).
T1 sequence (looked up): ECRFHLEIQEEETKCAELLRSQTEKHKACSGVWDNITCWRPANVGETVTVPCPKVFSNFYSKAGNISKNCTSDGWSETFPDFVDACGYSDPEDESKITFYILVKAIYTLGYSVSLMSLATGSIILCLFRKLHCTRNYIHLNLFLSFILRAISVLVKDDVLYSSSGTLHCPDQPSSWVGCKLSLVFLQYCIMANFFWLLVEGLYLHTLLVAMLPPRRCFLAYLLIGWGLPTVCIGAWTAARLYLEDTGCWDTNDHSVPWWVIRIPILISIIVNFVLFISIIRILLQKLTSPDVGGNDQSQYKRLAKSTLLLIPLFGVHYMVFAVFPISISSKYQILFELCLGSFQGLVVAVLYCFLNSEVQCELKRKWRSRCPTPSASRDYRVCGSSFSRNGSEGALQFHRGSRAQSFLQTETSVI
As to the kind of experiment: YFP PCA, transient transfection in HEK cells, fluorescence micrographs (FIG. 13 legend).

In experiment [6] the target is T1, vasoactive intestinal peptide receptor 2 (YFP PCA fragment fusion). As to the kind of experiment: YFP PCA, transient transfection in HEK cells, fluorescence microscopy.

Turning to “GRK2 (YFP PCA fragment fusion) (from UniProt P25098 1-689) (enzyme)”, the binding entry in experiment [1] and in experiment [2] was “binds” in each case.
Take “PKCalpha (YFP PCA fragment fusion) (from UniProt P17252 1-672) (enzyme)”: the binding result in experiment [3] and in experiment [4] was “binds” in each case.
Take “G-beta-1 (YFP PCA fragment fusion, Example 7) (from UniProt P62873 1-340)”: the binding result in experiment [5] and in experiment [6] was “binds” throughout.

B1: RGS2 (YFP PCA fragment fusion) (protein, UniProt P41220 1-211, looked up, not shown: large carriers)
chain: MQSAMFLAVQHDCRPMDKSAGSGHKSEEKREKMKRTLLKDWKTRLSYFLQNSSTPGKPKTGKKSKQQAFIKPSPEEAQLWSEAFDELLASKYGLAAFRAFLKSEFCEENIEFWLACEDFKKTKSPQKLSSKARKIYTDFIEKEAPKEINIDFQTKTLIAQNIQEATSGCFTTAQKRVYSLMENNSYPRFLESEFYQDLCKKPQITTEPHAT
Regarding B1, the binding entry in experiment [1] and in experiment [2] was “binds” in each case.
